The text below walks through data of paper PMC8035787.

Protein sequences, listed by entry. Tags and fused reporters are not part of them.
UniProt P35638: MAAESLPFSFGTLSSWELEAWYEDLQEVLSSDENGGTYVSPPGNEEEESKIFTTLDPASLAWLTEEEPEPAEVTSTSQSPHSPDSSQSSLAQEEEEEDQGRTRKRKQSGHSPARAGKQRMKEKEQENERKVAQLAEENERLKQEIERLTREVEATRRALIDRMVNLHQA

For this test, the target named is T1, Argininosuccinate synthase 1 with Flag tag (ASS1-Flag) (UniProt P00966).
T1 sequence: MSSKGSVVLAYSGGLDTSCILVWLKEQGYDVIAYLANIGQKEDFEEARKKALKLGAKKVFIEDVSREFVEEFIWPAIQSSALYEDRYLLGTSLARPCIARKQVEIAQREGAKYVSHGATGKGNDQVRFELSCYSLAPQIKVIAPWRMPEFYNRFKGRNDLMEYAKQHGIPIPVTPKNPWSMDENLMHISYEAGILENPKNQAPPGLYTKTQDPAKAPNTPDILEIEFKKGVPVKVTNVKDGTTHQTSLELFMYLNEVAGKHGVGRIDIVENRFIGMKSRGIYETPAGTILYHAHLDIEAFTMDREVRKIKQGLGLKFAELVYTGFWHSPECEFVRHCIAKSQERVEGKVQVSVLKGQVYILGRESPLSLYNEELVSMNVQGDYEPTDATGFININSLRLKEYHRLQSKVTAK
In words: co-IP; lysates (2 mg/500 ul) of Huh7 cells transfected with ASS1-Flag, precipitated with anti-Flag at 4 °C overnight (Pierce Co-immunoprecipitation Kit); immunoblot with anti-PERK, ATF4 and CHOP; cells with and without induction of ER stress.

These are yes or no findings as the source states them, for the method shown. Binding seen in cells or lysates may run through a third protein. Some results given as binding are weak or reduced against the parent protein; the word gives no strength. Tags and fused reporters may be left off the sequences shown.

Take “C/EBP homologous protein (CHOP; DNA damage inducible transcript 3) (from UniProt P35638 1-169)”: the binding result was “binds”.
